# The supplement of paper PMC4635364
# Structures can show the parent of a compound that is named as a salt. The list shows a part of the results. Single values are uncertain here, since repeats match poorly.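 Human fetal ventral-midbrain neural progenitor line ReNCell VM, differentiated without mitogens. Images stained for doublecortin (early neurons) or tyrosine hydroxylase (dopaminergic neurons) were scored by blinded raters against untreated wells (0 = no change). Repeats and both raters were averaged, and compounds averaging 2 or higher were picked as hits for retesting.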
# Tests used:
# ReNCell VM [1] = test: neuronal differentiation score (DCX+ cell fraction vs untreated, manual image score) (score (-3 to 3)); higher = more neuronal differentiation; details: 2 uM, 2 weeks
# ReNCell VM [2] = test: dopaminergic neuron differentiation score (TH+ cell fraction vs untreated, manual image score) (score (0 to 3)); higher = more TH+ dopaminergic neuron differentiation; details: 2 uM, 4 weeks, BDNF 10 ng/ml + GDNF 10 ng/ml
structure (smiles),measurement,setting,value
CN1CCCC(n2nc(Cc3ccc(Cl)cc3)c3ccccc3c2=O)CC1 (stereo not given),neuronal differentiation score,ReNCell VM [1]; library: Spectrum,inactive: 0
same,dopaminergic neuron differentiation score,ReNCell VM [2]; library: Spectrum,inactive: 0
O=C(CCCCCCCCCCCCC1CCCC1)Nc1ccc(S(=O)(=O)c2ccc(NC(=O)CCCCCCCCCCCCC3CCCC3)cc2)cc1,neuronal differentiation score,ReNCell VM [1]; library: Spectrum,inactive: 0
same,dopaminergic neuron differentiation score,ReNCell VM [2]; library: Spectrum,inactive: 0
Nc1nc(F)nc2c1ncn2[C@@H]1O[C@H](COP(=O)(O)O)[C@@H](O)[C@@H]1O,neuronal differentiation score,ReNCell VM [1]; library: Spectrum,inactive: 0
same,dopaminergic neuron differentiation score,ReNCell VM [2]; library: Spectrum,inactive: 0
COP(=O)(OC)OC(c1ccc(Cl)cc1)P(=O)(OC)OC (stereo not given),neuronal differentiation score,ReNCell VM [1]; library: Tocriscreen,inactive: 0
same,dopaminergic neuron differentiation score,ReNCell VM [2]; library: Tocriscreen,inactive: 0
Cc1c(N)c(=O)n(-c2ccccc2)n1C [Ampyrone],neuronal differentiation score,ReNCell VM [1]; library: Prestwick,inactive: 0
same,dopaminergic neuron differentiation score,ReNCell VM [2]; library: Prestwick,inactive: 0
CCOCCn1c(N2CCCN(C)CC2)nc2ccccc21 [Emedastine],neuronal differentiation score,ReNCell VM [1]; library: Prestwick,inactive: 0
same,dopaminergic neuron differentiation score,ReNCell VM [2]; library: Prestwick,inactive: 0
C[C@@]1(O)[C@H](O)[C@@H](CO)O[C@H]1n1cnc2c(NC3CCCC3)nc(Cl)nc21,neuronal differentiation score,ReNCell VM [1]; library: Tocriscreen,inactive: 1
same,dopaminergic neuron differentiation score,ReNCell VM [2]; library: Tocriscreen,inactive: 0
CC(C)NCC(O)COc1ccccc1-n1cccc1 (stereo not given) [Isamoltane hemifumarate],neuronal differentiation score,ReNCell VM [1]; library: Tocriscreen,inactive: 0
same,dopaminergic neuron differentiation score,ReNCell VM [2]; library: Tocriscreen,inactive: 0
COc1ccc2[nH]c(=O)c3c(c2c1)OC(C)(C)C=C3 [haplamine],neuronal differentiation score,ReNCell VM [1]; library: Natural,inactive: -1
same,dopaminergic neuron differentiation score,ReNCell VM [2]; library: Natural,inactive: 0
C/C=C(/C(=C/C)c1ccc(O)cc1)c1ccc(O)cc1,neuronal differentiation score,ReNCell VM [1]; library: Spectrum,inactive: 0
same,dopaminergic neuron differentiation score,ReNCell VM [2]; library: Spectrum,inactive: 0
CC(=O)N(CC(O)CO)c1c(I)c(C(=O)NCC(O)CO)c(I)c(C(=O)NCC(O)CO)c1I (stereo not given) [Iohexol],neuronal differentiation score,ReNCell VM [1]; library: Prestwick,inactive: 0
same,dopaminergic neuron differentiation score,ReNCell VM [2]; library: Prestwick,inactive: 0
CC(C)CCCC(C)NC(C)C (stereo not given),neuronal differentiation score,ReNCell VM [1]; library: Spectrum,inactive: 0
same,dopaminergic neuron differentiation score,ReNCell VM [2]; library: Spectrum,inactive: 0
CC(CN1c2ccccc2Sc2ccccc21)N(C)C (stereo not given),neuronal differentiation score,ReNCell VM [1]; library: Spectrum,inactive: 0
same,dopaminergic neuron differentiation score,ReNCell VM [2]; library: Spectrum,inactive: 0
C=CCc1ccc(O)c(OC)c1,neuronal differentiation score,ReNCell VM [1]; library: Spectrum,inactive: 0
same,dopaminergic neuron differentiation score,ReNCell VM [2]; library: Spectrum,inactive: 0
C[C@@H](c1ncncc1F)[C@](O)(Cn1cncn1)c1ccc(F)cc1F,neuronal differentiation score,ReNCell VM [1]; library: Spectrum,inactive: 0
same,dopaminergic neuron differentiation score,ReNCell VM [2]; library: Spectrum,inactive: 1
NCCCCCc1c[nH]cn1 [Impentamine dihydrobromide],neuronal differentiation score,ReNCell VM [1]; library: Tocriscreen,inactive: 0
same,dopaminergic neuron differentiation score,ReNCell VM [2]; library: Tocriscreen,inactive: 0
CC1CCc2cc(F)cc3c(=O)c(C(=O)O)cn1c23 (stereo not given) [Flumequine],neuronal differentiation score,ReNCell VM [1]; library: Prestwick,inactive: 0
same,dopaminergic neuron differentiation score,ReNCell VM [2]; library: Prestwick,inactive: 0
CN(C)CCOC(=O)C(c1ccccc1)C1(O)CCCC1 (stereo not given) [Cyclopentolate hydrochloride],neuronal differentiation score,ReNCell VM [1]; library: Prestwick,inactive: 0
same,dopaminergic neuron differentiation score,ReNCell VM [2]; library: Prestwick,inactive: 0
O=C(Oc1cc(O)cc2c1C[C@@H](OC(=O)c1cc(O)c(O)c(O)c1)[C@@H](c1cc(O)c(O)c(O)c1)O2)c1cc(O)c(O)c(O)c1,neuronal differentiation score,ReNCell VM [1]; library: Spectrum,inactive: -1
same,dopaminergic neuron differentiation score,ReNCell VM [2]; library: Spectrum,inactive: 0
CCCNCC(O)COc1ccccc1C(=O)CCc1ccccc1 (stereo not given),neuronal differentiation score,ReNCell VM [1]; library: Spectrum,inactive: 0
same,dopaminergic neuron differentiation score,ReNCell VM [2]; library: Spectrum,inactive: 0
C[C@@H]1O[C@@H](O[C@@H]2[C@@H](O)[C@H](OCCc3ccc(O)c(O)c3)O[C@H](CO)[C@H]2OC(=O)/C=C/c2ccc(O)c(O)c2)[C@H](O)[C@H](O)[C@H]1O [acteoside],neuronal differentiation score,ReNCell VM [1]; library: Natural,inactive: 0
same,dopaminergic neuron differentiation score,ReNCell VM [2]; library: Natural,inactive: 0
CCOc1ccc(NC(=O)CC(C)O)cc1 (stereo not given),neuronal differentiation score,ReNCell VM [1]; library: Spectrum,inactive: 0
same,dopaminergic neuron differentiation score,ReNCell VM [2]; library: Spectrum,inactive: 0
O=C(O)CCc1nc2ccccc2[nH]1,neuronal differentiation score,ReNCell VM [1]; library: Spectrum,inactive: 0
same,dopaminergic neuron differentiation score,ReNCell VM [2]; library: Spectrum,inactive: 0
O=C(Nc1ccc([N+](=O)[O-])cc1O)Nc1ccccc1Br,neuronal differentiation score,ReNCell VM [1]; library: Tocriscreen,inactive: 0
same,dopaminergic neuron differentiation score,ReNCell VM [2]; library: Tocriscreen,inactive: 0
CCCN(CCC)S(=O)(=O)c1ccc(C(=O)O)cc1 [Probenecid],neuronal differentiation score,ReNCell VM [1]; library: Prestwick,inactive: 0
same,dopaminergic neuron differentiation score,ReNCell VM [2]; library: Prestwick,inactive: 0
COc1ccc2c(c1)OCC(Cc1ccc(OC)c(OC)c1)C2=O (stereo not given),neuronal differentiation score,ReNCell VM [1]; library: Spectrum,inactive: 0
same,dopaminergic neuron differentiation score,ReNCell VM [2]; library: Spectrum,inactive: 0
Oc1ccc(O)cc1 [Hydroquinone],neuronal differentiation score,ReNCell VM [1]; library: LOPAC,inactive: -3
same,dopaminergic neuron differentiation score,ReNCell VM [2]; library: LOPAC,inactive: 0
"C[C@](N)(Cc1ccc(O)c(O)c1)C(=O)O [Methyldopa (L,-)]",neuronal differentiation score,ReNCell VM [1]; library: Prestwick,inactive: 0
same,dopaminergic neuron differentiation score,ReNCell VM [2]; library: Prestwick,inactive: 0
CN1c2ccccc2C(=O)N2CCc3c([nH]c4ccccc34)C21 (stereo in doubt) [Evodiamine],neuronal differentiation score,ReNCell VM [1]; library: Phytochemical,inactive: 0
same,dopaminergic neuron differentiation score,ReNCell VM [2]; library: Phytochemical,inactive: 0
NCCCS(=O)(=O)O,neuronal differentiation score,ReNCell VM [1]; library: Spectrum,inactive: 0
same,dopaminergic neuron differentiation score,ReNCell VM [2]; library: Spectrum,inactive: 0
Cc1ccc2c(=O)c3ccccc3n(CCCN)c2c1C,neuronal differentiation score,ReNCell VM [1]; library: Tocriscreen,inactive: 0
same,dopaminergic neuron differentiation score,ReNCell VM [2]; library: Tocriscreen,inactive: 0
O=C(O)c1cc(/N=N/c2ccc(O)c(C(=O)O)c2)ccc1O,neuronal differentiation score,ReNCell VM [1]; library: Spectrum,inactive: 0
same,dopaminergic neuron differentiation score,ReNCell VM [2]; library: Spectrum,inactive: 0
CCN(CC)CCOc1ccc2c(c1)C(=O)c1cc(OCCN(CC)CC)ccc1-2,neuronal differentiation score,ReNCell VM [1]; library: Spectrum,inactive: 0
same,dopaminergic neuron differentiation score,ReNCell VM [2]; library: Spectrum,inactive: 0
O=C1C[C@@H](c2ccc(O)cc2)Oc2cc(O)cc(O)c21,neuronal differentiation score,ReNCell VM [1]; library: Spectrum,inactive: 0
same,dopaminergic neuron differentiation score,ReNCell VM [2]; library: Spectrum,inactive: 0
OC[C@H]1O[C@@](CO)(O[C@H]2O[C@H](CO)[C@@H](O)[C@H](O)[C@H]2O)[C@@H](O[C@H]2O[C@H](CO)[C@@H](O)[C@H](O)[C@H]2O)[C@@H]1O,neuronal differentiation score,ReNCell VM [1]; library: Spectrum,inactive: 0
same,dopaminergic neuron differentiation score,ReNCell VM [2]; library: Spectrum,inactive: 0

# Two entries drawn at random from those above, as already listed:
structure (smiles),measurement,setting,value
CC1CCc2cc(F)cc3c(=O)c(C(=O)O)cn1c23 (stereo not given) [Flumequine],neuronal differentiation score,ReNCell VM [1]; library: Prestwick,inactive: 0
C[C@@H](c1ncncc1F)[C@](O)(Cn1cncn1)c1ccc(F)cc1F,neuronal differentiation score,ReNCell VM [1]; library: Spectrum,inactive: 0
